Test results: PubChem BioAssay AID488895 (Broad Institute, 2010)
In all, about 340,000 compounds went through this assay and about 120 (0.035%) were called active. Listed are the inconclusive results; actives and inactives stand elsewhere.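 How the source made its calls: active means mean replicate inhibition at least 50% and at least half of replicates individually reaching 50%; inconclusive means only one of the two criteria met; inactive means neither criterion met.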

Test: blockers of twin-arginine translocation in E. coli – MC4100, TorA-mCherry reporter, fluorescence, single point, primary screen (AID 488895);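 further: exported cargo escapes ClpAP degradation while cytoplasmic cargo is degraded and loses fluorescence; 0% = median of neutral control wells and 100% = median of NaSCN control wells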
Settings: E. coli MC4100 TorA-mCherry Tat export, at 10 µM, stronger effect = higher value

SMILES	inhibition
CCCCCCCCCCCCCCCC1C[N+](C)(C)CCOP(C)(=O)O1 (stereo unspecified)	inconclusive: 40.4%
